From patent US8017579B2 (priority 2003, dated 2011)
Where a sequence shows no end group, the ends are not given.

Assay: peptide made by a vendor
Details: whole synthesis, scale of the general procedure 5 micromole

In the case of WRWRKRWRKWRWRKRWRK, the “final HPLC purity” value is reported as over 80%.
